From article PMC7722926
No constants are given. Whether binding was seen depends on the method and setting. In cells and extracts the contact can be indirect. Here binding means that the protein was enriched with, or labelled near, the bait; the list need not be complete. Tags and fused reporters may be left off the sequences shown.

The chains behind the UniProt entries cited, without tags or fusion partners.
UniProt Q9Y265: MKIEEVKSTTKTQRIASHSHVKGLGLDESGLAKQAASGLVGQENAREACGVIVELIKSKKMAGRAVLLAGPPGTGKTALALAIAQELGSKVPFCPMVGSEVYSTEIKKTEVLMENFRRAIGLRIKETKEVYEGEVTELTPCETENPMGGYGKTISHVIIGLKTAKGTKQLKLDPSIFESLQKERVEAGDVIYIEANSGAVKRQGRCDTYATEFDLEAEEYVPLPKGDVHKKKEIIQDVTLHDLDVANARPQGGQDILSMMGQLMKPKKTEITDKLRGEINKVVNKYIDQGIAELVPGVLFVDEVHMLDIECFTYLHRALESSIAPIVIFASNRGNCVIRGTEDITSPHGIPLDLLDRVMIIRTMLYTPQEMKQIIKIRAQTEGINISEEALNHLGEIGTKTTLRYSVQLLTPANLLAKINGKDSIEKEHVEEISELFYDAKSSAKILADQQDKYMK

Biological target: T1, Flag-tagged CARM1 (coactivator-associated arginine methyltransferase 1) (UniProt Q86X55)
T1 sequence: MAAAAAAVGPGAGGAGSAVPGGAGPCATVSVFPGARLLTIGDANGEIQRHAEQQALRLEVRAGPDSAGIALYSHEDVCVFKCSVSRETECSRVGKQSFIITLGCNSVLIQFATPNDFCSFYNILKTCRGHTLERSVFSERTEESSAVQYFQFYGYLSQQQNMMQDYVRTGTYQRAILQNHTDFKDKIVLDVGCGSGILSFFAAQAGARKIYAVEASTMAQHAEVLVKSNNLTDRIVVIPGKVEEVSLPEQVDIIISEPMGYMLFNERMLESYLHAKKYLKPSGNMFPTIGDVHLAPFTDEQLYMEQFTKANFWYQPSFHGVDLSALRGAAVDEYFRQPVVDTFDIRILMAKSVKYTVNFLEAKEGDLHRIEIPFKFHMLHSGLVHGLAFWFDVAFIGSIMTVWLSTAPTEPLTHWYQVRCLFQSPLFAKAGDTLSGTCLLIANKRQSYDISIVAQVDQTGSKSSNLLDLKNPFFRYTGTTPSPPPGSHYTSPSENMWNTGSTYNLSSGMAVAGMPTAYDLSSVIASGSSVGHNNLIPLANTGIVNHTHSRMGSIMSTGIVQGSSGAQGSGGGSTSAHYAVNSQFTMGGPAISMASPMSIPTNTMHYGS
Test: affinity purification with mass spectrometry; Flag-CARM1 from HEK293T extracts on Flag-M2 affinity gel, wash with 150 mM KCl, 0.05% Nonidet P40, elution with Flag peptide, SDS-PAGE, LC-MS/MS; glucose starvation

- binding: binds
Substance: Pontin chromatin-remodeling factor (endogenous, HEK293T) (from UniProt Q9Y265 1-456)
